This is an account of results in the supplement of paper PMC11006884.

By UniProt entry, the sequences of proteins in these tests, tags left out. Where a name states a change or a piece, a line headed by the entry shows the natural chain unless it says otherwise.
UniProt O43175: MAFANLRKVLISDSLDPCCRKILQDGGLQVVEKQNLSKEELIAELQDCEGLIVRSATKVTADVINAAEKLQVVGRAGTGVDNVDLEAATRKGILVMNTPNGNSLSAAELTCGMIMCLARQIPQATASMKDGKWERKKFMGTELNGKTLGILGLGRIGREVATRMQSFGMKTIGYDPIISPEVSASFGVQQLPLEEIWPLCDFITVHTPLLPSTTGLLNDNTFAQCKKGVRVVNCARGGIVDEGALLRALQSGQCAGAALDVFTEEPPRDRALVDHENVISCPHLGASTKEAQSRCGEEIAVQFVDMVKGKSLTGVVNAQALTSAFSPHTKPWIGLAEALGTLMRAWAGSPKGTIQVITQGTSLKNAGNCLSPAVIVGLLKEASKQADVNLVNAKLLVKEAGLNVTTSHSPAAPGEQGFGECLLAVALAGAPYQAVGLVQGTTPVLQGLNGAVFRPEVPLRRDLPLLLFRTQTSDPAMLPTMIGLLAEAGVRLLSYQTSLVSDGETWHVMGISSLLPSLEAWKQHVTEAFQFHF
UniProt O15067: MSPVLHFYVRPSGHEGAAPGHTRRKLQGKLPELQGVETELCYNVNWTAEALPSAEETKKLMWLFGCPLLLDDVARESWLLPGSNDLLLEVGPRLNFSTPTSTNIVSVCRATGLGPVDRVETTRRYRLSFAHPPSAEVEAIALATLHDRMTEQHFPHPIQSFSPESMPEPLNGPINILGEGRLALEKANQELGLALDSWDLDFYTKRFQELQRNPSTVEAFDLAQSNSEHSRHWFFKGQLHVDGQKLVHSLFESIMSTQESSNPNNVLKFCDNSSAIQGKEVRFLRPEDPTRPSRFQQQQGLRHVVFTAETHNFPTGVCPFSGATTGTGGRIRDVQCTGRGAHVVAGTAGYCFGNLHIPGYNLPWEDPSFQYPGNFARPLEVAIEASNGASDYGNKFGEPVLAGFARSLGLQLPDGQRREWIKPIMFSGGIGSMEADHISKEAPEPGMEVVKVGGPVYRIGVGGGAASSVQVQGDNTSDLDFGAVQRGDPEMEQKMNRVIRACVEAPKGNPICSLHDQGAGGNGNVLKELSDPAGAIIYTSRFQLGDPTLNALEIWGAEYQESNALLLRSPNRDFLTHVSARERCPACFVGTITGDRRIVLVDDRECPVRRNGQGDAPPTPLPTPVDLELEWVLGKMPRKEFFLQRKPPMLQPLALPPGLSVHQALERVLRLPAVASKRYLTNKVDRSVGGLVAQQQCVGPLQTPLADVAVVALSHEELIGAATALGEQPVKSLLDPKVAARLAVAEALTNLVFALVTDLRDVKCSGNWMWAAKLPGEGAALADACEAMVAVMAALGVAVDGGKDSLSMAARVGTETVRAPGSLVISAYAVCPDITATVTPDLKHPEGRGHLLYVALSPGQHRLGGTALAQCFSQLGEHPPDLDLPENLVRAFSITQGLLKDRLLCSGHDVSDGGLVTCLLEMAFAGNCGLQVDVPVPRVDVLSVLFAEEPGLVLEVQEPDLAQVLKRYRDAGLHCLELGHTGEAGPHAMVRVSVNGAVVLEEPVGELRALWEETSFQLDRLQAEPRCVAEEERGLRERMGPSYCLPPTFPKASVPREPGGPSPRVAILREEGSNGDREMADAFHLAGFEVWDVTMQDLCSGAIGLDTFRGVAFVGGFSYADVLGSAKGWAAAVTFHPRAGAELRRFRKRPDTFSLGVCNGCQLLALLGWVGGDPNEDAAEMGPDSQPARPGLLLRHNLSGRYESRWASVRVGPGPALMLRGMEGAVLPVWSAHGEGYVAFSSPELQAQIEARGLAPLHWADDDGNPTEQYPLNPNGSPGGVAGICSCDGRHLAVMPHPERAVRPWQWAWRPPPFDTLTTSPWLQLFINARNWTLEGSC
UniProt O00116: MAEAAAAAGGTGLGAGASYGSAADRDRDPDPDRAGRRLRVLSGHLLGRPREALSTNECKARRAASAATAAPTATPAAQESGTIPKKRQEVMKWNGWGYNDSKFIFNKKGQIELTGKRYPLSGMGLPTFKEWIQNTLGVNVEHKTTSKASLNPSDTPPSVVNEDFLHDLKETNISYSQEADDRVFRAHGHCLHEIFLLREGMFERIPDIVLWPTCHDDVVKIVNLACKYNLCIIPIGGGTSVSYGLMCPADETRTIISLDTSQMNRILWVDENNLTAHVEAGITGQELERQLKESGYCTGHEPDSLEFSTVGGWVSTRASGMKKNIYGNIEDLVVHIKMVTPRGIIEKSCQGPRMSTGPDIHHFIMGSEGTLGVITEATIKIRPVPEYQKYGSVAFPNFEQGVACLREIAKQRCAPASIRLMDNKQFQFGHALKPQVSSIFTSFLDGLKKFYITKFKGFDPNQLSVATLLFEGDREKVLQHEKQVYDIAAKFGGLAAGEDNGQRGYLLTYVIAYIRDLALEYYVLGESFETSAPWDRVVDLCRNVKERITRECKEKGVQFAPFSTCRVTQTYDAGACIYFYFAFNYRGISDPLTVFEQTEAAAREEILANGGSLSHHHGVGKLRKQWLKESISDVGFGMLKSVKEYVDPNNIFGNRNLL
UniProt O14893: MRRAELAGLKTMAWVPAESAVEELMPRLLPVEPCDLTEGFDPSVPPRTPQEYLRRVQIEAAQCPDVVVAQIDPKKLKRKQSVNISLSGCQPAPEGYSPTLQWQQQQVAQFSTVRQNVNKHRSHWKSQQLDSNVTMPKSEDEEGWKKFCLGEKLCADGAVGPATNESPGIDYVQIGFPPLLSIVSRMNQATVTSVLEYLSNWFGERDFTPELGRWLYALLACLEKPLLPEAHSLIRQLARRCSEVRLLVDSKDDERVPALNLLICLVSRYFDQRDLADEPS
UniProt O15381: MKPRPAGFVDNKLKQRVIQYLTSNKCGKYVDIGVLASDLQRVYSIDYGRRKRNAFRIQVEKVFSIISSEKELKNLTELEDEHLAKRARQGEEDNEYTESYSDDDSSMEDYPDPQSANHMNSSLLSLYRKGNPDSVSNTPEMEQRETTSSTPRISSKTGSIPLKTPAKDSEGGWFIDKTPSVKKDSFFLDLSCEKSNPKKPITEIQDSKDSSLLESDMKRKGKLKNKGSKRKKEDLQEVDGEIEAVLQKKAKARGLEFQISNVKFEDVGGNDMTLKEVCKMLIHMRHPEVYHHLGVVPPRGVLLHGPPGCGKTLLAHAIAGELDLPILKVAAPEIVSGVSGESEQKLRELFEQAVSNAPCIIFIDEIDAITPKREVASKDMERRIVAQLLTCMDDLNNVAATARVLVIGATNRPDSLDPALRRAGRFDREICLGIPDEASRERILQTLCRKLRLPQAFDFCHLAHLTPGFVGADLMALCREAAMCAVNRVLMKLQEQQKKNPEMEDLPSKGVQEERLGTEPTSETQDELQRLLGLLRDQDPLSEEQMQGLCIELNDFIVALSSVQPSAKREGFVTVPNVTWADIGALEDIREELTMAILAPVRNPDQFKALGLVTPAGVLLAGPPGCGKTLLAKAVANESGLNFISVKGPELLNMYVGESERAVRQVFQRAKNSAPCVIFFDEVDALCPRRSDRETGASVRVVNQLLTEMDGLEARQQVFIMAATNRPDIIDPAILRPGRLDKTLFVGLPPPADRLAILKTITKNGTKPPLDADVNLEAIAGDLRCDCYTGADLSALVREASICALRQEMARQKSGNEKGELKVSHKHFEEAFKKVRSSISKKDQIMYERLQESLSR
UniProt O00161: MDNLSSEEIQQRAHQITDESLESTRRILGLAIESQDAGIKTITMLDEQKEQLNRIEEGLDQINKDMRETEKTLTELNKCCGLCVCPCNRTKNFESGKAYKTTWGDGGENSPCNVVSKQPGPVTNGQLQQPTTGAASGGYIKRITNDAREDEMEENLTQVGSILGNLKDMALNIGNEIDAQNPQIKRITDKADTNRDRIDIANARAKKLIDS
UniProt O15085: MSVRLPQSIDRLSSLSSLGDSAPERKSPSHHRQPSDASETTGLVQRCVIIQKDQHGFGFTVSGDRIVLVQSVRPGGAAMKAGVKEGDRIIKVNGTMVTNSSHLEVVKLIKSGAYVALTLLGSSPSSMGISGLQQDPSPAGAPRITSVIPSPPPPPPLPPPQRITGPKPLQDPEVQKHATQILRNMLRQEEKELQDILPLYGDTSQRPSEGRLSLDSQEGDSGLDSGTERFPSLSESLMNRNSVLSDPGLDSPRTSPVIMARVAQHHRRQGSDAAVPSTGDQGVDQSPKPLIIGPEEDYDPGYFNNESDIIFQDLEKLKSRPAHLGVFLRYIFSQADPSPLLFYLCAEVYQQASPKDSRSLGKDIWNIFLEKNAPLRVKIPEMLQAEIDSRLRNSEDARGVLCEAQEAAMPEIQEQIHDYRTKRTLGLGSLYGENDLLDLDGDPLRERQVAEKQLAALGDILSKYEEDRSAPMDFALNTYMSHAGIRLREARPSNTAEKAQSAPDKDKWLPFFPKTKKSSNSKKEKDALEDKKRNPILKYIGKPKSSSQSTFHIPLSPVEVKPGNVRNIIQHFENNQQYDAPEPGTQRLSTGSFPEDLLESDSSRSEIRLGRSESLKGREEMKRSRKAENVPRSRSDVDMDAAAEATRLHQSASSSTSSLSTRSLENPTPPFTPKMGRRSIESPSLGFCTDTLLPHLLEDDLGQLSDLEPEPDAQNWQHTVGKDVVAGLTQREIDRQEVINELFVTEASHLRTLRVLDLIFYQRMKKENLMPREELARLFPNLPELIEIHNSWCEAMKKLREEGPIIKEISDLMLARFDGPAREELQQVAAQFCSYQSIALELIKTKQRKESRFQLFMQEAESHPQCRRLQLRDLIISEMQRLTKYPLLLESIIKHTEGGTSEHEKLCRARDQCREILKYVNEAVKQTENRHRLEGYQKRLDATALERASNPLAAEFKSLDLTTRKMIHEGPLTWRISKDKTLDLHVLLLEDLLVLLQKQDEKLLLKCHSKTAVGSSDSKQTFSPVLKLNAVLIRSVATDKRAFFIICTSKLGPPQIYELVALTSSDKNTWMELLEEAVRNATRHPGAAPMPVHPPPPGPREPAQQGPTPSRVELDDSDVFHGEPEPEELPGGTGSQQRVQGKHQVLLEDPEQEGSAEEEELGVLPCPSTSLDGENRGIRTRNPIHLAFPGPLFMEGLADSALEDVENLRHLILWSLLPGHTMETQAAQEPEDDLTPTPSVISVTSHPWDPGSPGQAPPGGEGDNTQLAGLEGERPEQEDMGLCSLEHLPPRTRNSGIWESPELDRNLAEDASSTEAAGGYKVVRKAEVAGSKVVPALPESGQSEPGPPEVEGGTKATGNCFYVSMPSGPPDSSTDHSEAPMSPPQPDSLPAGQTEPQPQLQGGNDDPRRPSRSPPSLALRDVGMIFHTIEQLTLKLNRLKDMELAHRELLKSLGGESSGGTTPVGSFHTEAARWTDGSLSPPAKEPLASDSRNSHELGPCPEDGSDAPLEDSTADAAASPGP
UniProt O15382: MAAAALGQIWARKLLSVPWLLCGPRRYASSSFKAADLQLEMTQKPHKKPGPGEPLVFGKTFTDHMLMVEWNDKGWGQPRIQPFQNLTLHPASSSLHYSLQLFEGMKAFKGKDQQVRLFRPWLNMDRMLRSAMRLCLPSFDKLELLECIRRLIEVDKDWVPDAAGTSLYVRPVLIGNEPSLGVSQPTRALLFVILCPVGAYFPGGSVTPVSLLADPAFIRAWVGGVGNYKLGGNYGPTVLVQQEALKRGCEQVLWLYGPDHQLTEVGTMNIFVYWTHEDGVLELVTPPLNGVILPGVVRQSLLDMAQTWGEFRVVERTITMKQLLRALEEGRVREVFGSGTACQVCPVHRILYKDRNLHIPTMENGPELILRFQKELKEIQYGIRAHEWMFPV
UniProt O14929: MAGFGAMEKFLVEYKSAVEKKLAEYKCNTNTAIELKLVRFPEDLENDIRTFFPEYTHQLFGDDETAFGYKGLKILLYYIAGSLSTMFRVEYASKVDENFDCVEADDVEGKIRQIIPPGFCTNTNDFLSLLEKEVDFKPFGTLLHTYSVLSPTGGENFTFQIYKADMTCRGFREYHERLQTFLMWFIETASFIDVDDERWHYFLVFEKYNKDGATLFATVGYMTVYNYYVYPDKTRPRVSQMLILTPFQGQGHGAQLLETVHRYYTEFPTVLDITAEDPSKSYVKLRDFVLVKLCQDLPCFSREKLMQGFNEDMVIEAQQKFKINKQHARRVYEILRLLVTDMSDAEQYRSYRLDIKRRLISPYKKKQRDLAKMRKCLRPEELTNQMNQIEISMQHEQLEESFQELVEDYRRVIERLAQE

The list shows a part of the results, in another mix than the full data.

Compound in the experiment: COC(=O)C#Cc1ccccc1 [methyl 3-phenylpropiolate]
Description: log2 ratio of iodoacetamide-alkyne labeling of the cysteine site, DMSO over compound (competition); higher = stronger covalent engagement of the cysteine by the compound, active = 1 or more. Particulars: 500 µM; treatment time 1 h; system: HEK293T cell lysate. The method in brief: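 HEK293T lysate (2 mg/mL) was incubated with electrophile (500 µM) or vehicle for 1 h at ambient temperature and then with iodoacetamide alkyne for 1 h. Labelled proteins were clicked to sCIP-TMT reagents, pooled, digested, enriched on streptavidin and measured by Orbitrap Eclipse LC-MS/MS with FAIMS, with FragPipe quantification. The per-cysteine log2 competition ratio is mean control-channel reporter intensity over mean compound-channel reporter intensity. Across three replicates with duplicate channels, cysteines quantified in only one replicate were excluded.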
For PHGDH C18 (UniProt O43175), the “log2 ratio of iodoacetamide-alkyne labeling” value (from here on “log2 ratio”) was inactive: 0.0299.
With NDUFS8 C117 (UniProt O00217) the figure was inactive: 0.0636.
With WASL C431 (UniProt O00401) the figure was active: 1.06; with PSMD9 C59 (UniProt O00233), inactive: 0.273.
The value for NKRF C37 (UniProt O15226) was active: 1.02; that for PFAS C1338 (UniProt O15067) was inactive: 0.118.
Regarding ARHGAP6 C769 (UniProt O43182), the “log2 ratio” value was inactive: 0.557.
Take PRMT5 C42 (UniProt O14744): the “log2 ratio” value was inactive: -0.126.
With MIF4GD C49 (UniProt A9UHW6) the figure was inactive: 0.465.
The value for AGPS C297 (UniProt O00116) was inactive: -0.0189; that for UniProt O14618_C227 was inactive: 0.371; that for ARVCF C770 (UniProt O00192) was inactive: 0.146.
With PFAS C270 (UniProt O15067) the figure was inactive: 0.115; with TAF4 C867 (UniProt O00268), inactive: 0.549; with GEMIN2 C63 (UniProt O14893), inactive: 0.211.
On to TRIM24 C81 (UniProt O15164), for which the “log2 ratio” value is inactive: 0.0661.
On to PSMD9 C216 (UniProt O00233), for which the “log2 ratio” value was inactive: -0.0404.
Consider DDX3X C468 (UniProt O00571), for which the “log2 ratio” value is inactive: 0.261.
With ARPC3 C162 (UniProt O15145) the figure was inactive: 0.237.
The value for UniProt O14972_C243 was inactive: 0.293.
NVL C687 (UniProt O15381): the “log2 ratio” value was inactive: 0.62.
The value for GTPBP1 C46 (UniProt O00178) was inactive: 0.388; that for SNAP23 C112 (UniProt O00161) was inactive: 0.146; that for EIF3CL C79 (UniProt B5ME19) was inactive: 0.24.
Regarding GAK C190 (UniProt O14976), the “log2 ratio” value is inactive: 0.637.
In the case of UniProt O14733_C131, the “log2 ratio” value is inactive: 0.601.
The value for ARHGEF11 C1500 (UniProt O15085) was inactive: 0.0286; that for PES1 C391 (UniProt O00541) was inactive: 0.153.
With ARHGEF11 C1166 (UniProt O15085) the figure was inactive: 0.618.
With BCAT2 C342 (UniProt O15382) the figure was inactive: -0.00145.
For the target PRPF4 C299 (UniProt O43172), the “log2 ratio” value is inactive: 0.28.
The value for HAT1 C376 (UniProt O14929) was inactive: 0.198; that for UniProt O00148_C86 was inactive: 0.118; that for DDX3X C298 (UniProt O00571) was inactive: 0.414.
With PHGDH C19 (UniProt O43175) the figure was inactive: -0.27.
The value for TNRC18 C2288 (UniProt O15417) was inactive: 0.37; that for PFAS C66 (UniProt O15067) was inactive: 0.518.
